# Experimental data from patent US20030166548A1, “PLAP polypeptides and methods of producing and using same” (Board of Regents, The University of Texas System, priority 1997, published 2003).
# Assay: Release of [3H]-oleic acid from labeled E. coli by melittin, effect of quenching method
smiles,measurement,setting,value
CC[C@H](C)[C@H](NC(=O)CN)C(=O)NCC(=O)N[C@@H](C)C(=O)N[C@H](C(=O)N[C@@H](CC(C)C)C(=O)N[C@@H](CCCCN)C(=O)N[C@H](C(=O)N[C@@H](CC(C)C)C(=O)N[C@H](C(=O)N[C@H](C(=O)NCC(=O)N[C@@H](CC(C)C)C(=O)N1CCC[C@H]1C(=O)N[C@@H](C)C(=O)N[C@@H](CC(C)C)C(=O)N[C@H](C(=O)N[C@@H](CO)C(=O)N[C@@H](Cc1c[nH]c2ccccc12)C(=O)N[C@H](C(=O)N[C@@H](CCCCN)C(=O)N[C@@H](CCCNC(=N)N)C(=O)N[C@@H](CCCCN)C(=O)N[C@@H](CCCNC(=N)N)C(=O)N[C@@H](CCC(N)=O)C(=O)N[C@@H](CCC(N)=O)C(N)=O)[C@@H](C)CC)[C@@H](C)CC)[C@@H](C)O)[C@@H](C)O)C(C)C)C(C)C [Melittin],release of [3H]-oleic acid with increasing melittin,"0° C., reaction quenched with cold PBS",no release of [^3H]-oleic acid was observed
same,release of [3H]-oleic acid with increasing melittin,"HCl used to stop the reaction, 0° C. to 37° C.",melittin-dependent increase in the release of [^3H]-oleic acid
